# Data: US10100120B2, “Antibody which specifically binds to human CRTH2” (KYOWA HAKKO KIRIN CO., LTD, priority 2015, dated 2018)
# B1: chLym2: rat/human chimeric Lym2 antibody, Lym2 variable regions with human IgG1 and κ constant regions (antibody, V domains shown)
# VH: EVQLVESGGGLVQPGRSMKLSCAASGFTFSNYYMAWVRQAPKKGLEWVATISYDGSSTYYRDSVKGRFTISRDNAKSTLYLQMDSLRSEDTATYYCARHRGYYYSGAGYFDYWGQGVMVTVSS
# VL: DVVLTQTPVSLSVTLGDQASISCRSSQSLEYSDGYTYLEWYLQKPGQSPQVLIYGVSNRFSGVPDRFIGSGSGTDFTLKISRVEPEDLGVYYCFQATHDPLTFGSGTKLEIK
# B2: LV1HV0: humanized Lym2 antibody, VL LV1 (SEQ ID NO: 35), VH HV0 (SEQ ID NO: 49) (antibody, V domains shown)
# VH: EVQLVESGGGVVQPGRSLRLSCAASGFTFSNYYMAWVRQAPGKGLEWVATISYDGSSTYYRDSVKGRFTISRDNAKNSLYLQMNSLRAEDTAVYYCARHRGYYYSGAGYFDYWGQGTMVTVSS
# VL: DIVMTQTPLSLPVTLGESASISCRSSQSLEYSDGYTYLEWYLQKPGQSPQVLIYGVSNRFSGVPDRFSGSGSGTDFTLKISRVEAEDVGVYYCFQATHDPLTFGQGTKLEIK
# Test system: mutated human CRTH2 with amino acid substitution
# Assay: Epitope analysis using CHO-S cells which express mutated human CRTH2 with amino acid substitution
# Format: binding
# Details: concluded from mutant reactivity
# Procedure: A mutant with amino acid substitution expression vector obtained by partially substituting amino acid residues in an extracellular region with other amino acid residues among the amino acid sequences of human CRTH2 was prepared. Specifically, mutant with amino acid substitution expression vectors obtained by substitution of S2A; N4A; T6A and L7A; K8A, P9A, and L10A; P12A, L14A, and EISA; Q16E, R19H, and Q21R; H23A, S24A, and N25A; T26A, S27A, and I28A; D171A, T172A, and I173A; S174A, R175A, and L176A; D177A, G178A, and R179A; 1180A and M181A; Y183A, Y184A, and N185A; L187A, L188A, and L189A; N190A; P191A; G192A; P193A; D194A; R195A; D196A, and T198A; N275A, G277A, and L278A; P276A; P279A and L281A; P280A; or V282A, R283A, and R284A in the amino acid sequences represented by SEQ ID NO: 2 were respectively prepared. It should be noted that the above symbols in the amino acid substitution indicate [single letter code of an amino acid residue before substitution] [substitution position counting from the N terminal] [single letter code of the amino acid reside after substitution]. […]
# After the reaction, the cells were washed and suspended with SM, and the fluorescent intensity was analyzed by flow cytometry (BD Biosciences, FACS CantoII). […]
row,Molecule,epitope recognized on human CRTH2
1,B1,bind to the same epitope
2,B2,bind to the same epitope
